Patent US12048691B2 (SPERO THERAPEUTICS, INC., priority 2020, dated 2024)
For part of these data: For at least one compound, name, drawing or mass did not settle the structure. Some results were stated once for a whole list of compounds, not compound by compound.

Legend:
Type in all cases: cell-based
[1] = tested on: AmpC production in P. aeruginosa; assay: AmpC induction (nitrocefin hydrolysis after drug exposure)
Experimental: AmpC induction was determined as follows. Baseline MIC values were determined by broth microdilution method, as described above, for 9 Gram-negative isolates with basal expression of ampC. These isolates were cultured overnight on blood agar plates. A standardized inoculum made from fresh overnight plate cultures was added to flasks containing 50 mL of Luria-Bertani (LB) broth and incubated by shaking at 37° C. to OD600 of 0.3. […] These cultures were incubated under shaking conditions. A 40 mL aliquot of bacterial cultures was sampled at time 0 and 2 hours after drug exposures. Each sample aliquot was harvested by centrifugation and the supernatant was discarded.
Protein crude extract preparations were made in 200 μL of BugBusterR (Novagen, Darmstadt, Germany) per manufacturer instructions and cell debris was removed by centrifugation. Protein concentrations were determined in each crude extract by standard methodologies.
AmpC induction was measured by the intensity of β-lactamase hydrolytic activity against 0.1 mM nitrocefin in 0.1 M phosphate buffer at pH 7.0 using spectrophotometry at 482 nm (Δ absorbance/minute/mg of protein). The drug exposure conditions that caused a >4-fold increase in hydrolysis activity compared to the baseline were subjected to postinduction experiments. […]

P. mirabilis = assay: Broth microdilution against US UTI pathogens 2019-2020; conditions: P. mirabilis (235); cefuroxime: oral breakpoint; listed as levofloxacin
Experimental: This study assessed the in vitro activity of tebipenem and comparator agents against Enterobacterales (ENT) responsible for UTIs in the US during 2019-2020. A total of 3,576 ENT recovered from urine samples during the 2019-2020 STEWARD Surveillance Program were included in the study. Isolates were collected from medical centers in all 9 US Census Regions and were centrally tested for susceptibility by reference broth microdilution method. MIC interpretation was performed based on CLSI criteria.

[2] = tested on: Enterobacterales overproducing AmpC; assay: Broth microdilution susceptibility of isolates overexpressing AmpC; conditions: Enterobacterales (36)
Experimental: Frozen-form broth microdilution panels were manufactured by JMI Laboratories and contained cation-adjusted Mueller-Hinton broth. Quality assurance was performed by sterility checks, colony counts, and testing CLSI recommended quality control reference strains.

C[C@@H](O)[C@H]1C(=O)N2C(C(=O)O)=C(SCCN=CN)C[C@H]12 [Imipenem]
effect of exposure on production of AmpC [1]: increased the production of AmpC

C[C@H]1COc2c(N3CCN(C)CC3)c(F)cc3c(=O)c(C(=O)O)cn1c23 [Levofloxacin, levofloxacin]
% susceptible; CLSI (P. mirabilis): 71.8-76.8%

CN(C)[C@@H]1C(O)=C(C(N)=O)C(=O)[C@@]2(O)C(O)=C3C(=O)c4c(O)cccc4[C@@](C)(O)[C@H]3C[C@@H]12 [Tetracycline]
MIC range [2]: 1 to >16
